{"sequences": {"note": "By UniProt entry, the sequences of proteins in these tests, tags left out. Residues count along the entry.", "UniProt Q9QUN7, residues 25-784": "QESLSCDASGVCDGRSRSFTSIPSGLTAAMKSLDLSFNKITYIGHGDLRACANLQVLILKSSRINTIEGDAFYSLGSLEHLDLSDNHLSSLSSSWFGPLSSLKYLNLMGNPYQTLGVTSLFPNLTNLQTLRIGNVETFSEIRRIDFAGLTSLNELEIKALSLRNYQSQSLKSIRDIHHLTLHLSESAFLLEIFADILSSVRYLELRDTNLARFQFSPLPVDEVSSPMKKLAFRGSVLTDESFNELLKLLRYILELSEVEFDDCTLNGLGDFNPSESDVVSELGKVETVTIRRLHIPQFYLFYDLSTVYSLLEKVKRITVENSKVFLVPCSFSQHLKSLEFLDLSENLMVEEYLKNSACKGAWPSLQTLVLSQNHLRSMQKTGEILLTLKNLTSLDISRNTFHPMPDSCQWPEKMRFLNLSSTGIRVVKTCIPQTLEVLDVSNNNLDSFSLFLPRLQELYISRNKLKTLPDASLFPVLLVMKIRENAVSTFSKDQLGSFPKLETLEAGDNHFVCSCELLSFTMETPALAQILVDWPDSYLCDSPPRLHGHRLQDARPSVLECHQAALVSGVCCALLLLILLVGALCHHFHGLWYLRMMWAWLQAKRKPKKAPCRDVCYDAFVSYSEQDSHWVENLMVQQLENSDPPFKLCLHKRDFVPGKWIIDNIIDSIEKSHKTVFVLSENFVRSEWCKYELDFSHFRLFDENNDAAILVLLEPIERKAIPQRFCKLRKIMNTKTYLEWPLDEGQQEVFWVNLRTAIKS"}, "source": "paper PMC6712401", "binders": {"B1": {"name": "protein kinase Czeta (enzyme, UniProt Q02956 1-592)", "chain": "MPSRTDPKMDRSGGRVRLKAHYGGDILITSVDAMTTFKDLCEEVRDMCGLHQQHPLTLKWVDSEGDPCTVSSQMELEEAFRLVCQGRDEVLIIHVFPSIPEQPGMPCPGEDKSIYRRGARRWRKLYRANGHLFQAKRFNRGAYCGQCSERIWGLSRQGYRCINCKLLVHKRCHVLVPLTCRRHMDSVMPSQEPPVDDKNDGVDLPSEETDGIAYISSSRKHDNIKDDSEDLKPVIDGVDGIKISQGLGLQDFDLIRVIGRGSYAKVLLVRLKKNDQIYAMKVVKKELVHDDEDIDWVQTEKHVFEQASSNPFLVGLHSCFQTTSRLFLVIEYVNGGDLMFHMQRQRKLPEEHARFYAAEICIALNFLHERGIIYRDLKLDNVLLDADGHIKLTDYGMCKEGLGPGDTTSTFCGTPNYIAPEILRGEEYGFSVDWWALGVLMFEMMAGRSPFDIITDNPDMNTEDYLFQVILEKPIRIPRFLSVKASHVLKGFLNKDPKERLGCRPQTGFSDIKSHAFFRSIDWDLLEKKQTLPPFQPQITDDYGLDNFDTQFTSEPVQLTPDDEDVIKRIDQSEFEGFEYINPLLLSAEESV"}}, "key": {"[1]": {"biological_target": "Toll-like receptor 2 (mouse (endogenous in peritoneal macrophages)) (UniProt Q9QUN7)", "experiment": "co-IP"}, "[2]": {"biological_target": "T1, exogenous histidine-tagged CD157 (UniProt Q64277)", "T1 sequence": "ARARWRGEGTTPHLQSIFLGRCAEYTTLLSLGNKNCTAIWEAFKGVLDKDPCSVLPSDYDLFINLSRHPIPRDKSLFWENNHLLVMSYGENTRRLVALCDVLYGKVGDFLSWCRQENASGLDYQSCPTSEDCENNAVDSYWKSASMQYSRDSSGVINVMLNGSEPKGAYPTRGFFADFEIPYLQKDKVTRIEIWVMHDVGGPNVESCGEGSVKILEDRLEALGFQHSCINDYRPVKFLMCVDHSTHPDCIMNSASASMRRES", "experiment": "co-IP; only the target purified"}}, "note": "No constants are given. Whether binding was seen depends on the method and setting. Binding seen in cells or lysates may run through a third protein. Some results given as binding are weak or reduced against the parent protein; the word gives no strength. For some assays here: Where a sequence is shown, tags or fusion partners need not be part of it.", "data": [{"binder": "B1", "values": [{"measurement": "binding", "setting": "[1]", "result": "binds"}, {"measurement": "binding", "setting": "[2]", "result": "binds"}]}]}
